According to PubChem BioAssay AID1487 (National Center for Advancing Translational Sciences (NCATS), 2009):
“And” between values parts separate entries of the source, which are not always exact repeats. Equal values may be shown once. The list shows a part of the results. Shown are side measurements of this screen, not its main read-out; they come without a call. Most of these compounds were active or inconclusive in the main read-out, so they are no random draw. Words in brackets tell the shape of the fitted curve; partial curves, single points and poor fits give uncertain potencies.

Experiment: qHTS Assay for Modulators of Lamin A Splicing
Conditions: HeLa LMNA splicing GFP/RFP minigene ratio, 48 h
Procedure, shortened: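 S3 HeLa cells stably expressing lamin A-EGFP splicing minigene plus DsRed2, 600 cells/well, 48 h compound exposure at 37C. Laser-scanning cytometry; analysed as GFP (500-530 nm)/RFP (575-640 nm) total intensity ratio; 0.5% DMSO vehicle.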

[1] = measured here: RFP viability control channel
[2] = measured here: GFP splicing reporter channel

Structure (SMILES)	AC50 [1]	AC50 [2]
CC1CCC2(CC1)NC(=O)N(NC(=O)CCl)C2=O (configuration not stated)	35.5 µM [rising, partial curve]	–
Cc1ccc(-n2c(O)c(/C=C3/C(c4ccccc4)=Nc4ccccc43)c(=O)[nH]c2=O)cc1	6.31 µM [rising, partial curve]	–
Cc1ccc(-n2c(O)c(C=NCCN(C)C)c(=O)[nH]c2=O)cc1	0.0316 µM [falling, full curve, poor fit]	0.0282 µM [falling, full curve, poor fit]
CC1Cc2cc3c(cc2C(c2ccc(N)cc2)=NN1)OCO3 (configuration not stated)	5.62 µM [falling, partial curve, poor fit]	–
C[N+](C)(C)CC#CCN1CCCC1=O	20 µM [falling, single point]	–
CCN1C[C@]2(C)CC[C@H](O)[C@@]34[C@@H]5C[C@@H]6[C@@H](OC)C[C@@](O)(C5[C@H]6O)[C@@H](C[C@@H]23)[C@@H]14	–	5.62 µM [falling, partial curve, poor fit]
Cc1ccc2nc(N3CCC(C(=O)N4CCC5(CC4)OCCO5)CC3)sc2c1	17.8 µM [rising, partial curve]	12.6 µM [rising, partial curve]
NC(=O)c1ccc(OCC(O)CN2CC=C(c3ccc(F)cc3)CC2)cc1 (configuration not stated)	–	0.00501 µM [falling, full curve, poor fit]
O=C(COc1ccc(Cl)cc1)N1CCN(C/C=C/c2ccccc2)CC1	15.8 µM [rising, single point]	–
Clc1ccccc1Cl	5.62 µM [rising, single point]	–
CSc1ccc(/C=C/c2nc3ccccc3c(=O)n2-c2cccc(Cl)c2C)cc1	20 µM [rising, single point]	–
C[n+]1c2cc(N)ccc2cc2ccc(N)cc21	17.8 µM [falling, partial curve]	3.98 µM [rising, partial curve]
CC1(C)C(=O)C=C[C@]2(C)[C@H]3CC[C@@]4(C)[C@H](c5ccoc5)OC(=O)[C@H]5O[C@]54[C@]3(C)[C@H](O)C[C@@H]12	17.8 µM [rising, single point]	–
Fc1ccc(Cn2nnnc2C(c2ccc(F)cc2)N2CC=C(c3ccc(F)cc3)CC2)cc1 (configuration not stated)	1.78 µM [rising, partial curve, poor fit]	–
CCCCCn1c(=O)c(C(=O)Nc2cnccn2)c(O)c2ccccc21	5.62 µM [rising, single point]	–
O=C1NC(=O)N(c2ccccc2)C(=O)/C1=C/c1ccc(Sc2ccccc2)o1	5.01 µM [rising, full curve]	15.8 µM [rising, partial curve]
CCc1ccc(-n2nc(C)c3c(C(=O)NCCc4ccc(OC)c(OC)c4)cc(C)nc32)cc1	0.398 µM [falling, partial curve, poor fit]	12.6 µM [falling, partial curve, poor fit]
COc1ccc(CNC(=O)/C=C/c2ccc3[nH]cc(CCN(C)C)c3c2)cc1	6.31 µM [rising, single point]	–
Cc1ccc(Cl)cc1Nc1nn2c(=O)c3ccc(C(=O)NCc4cccs4)cc3nc2s1	7.08 µM [falling, partial curve]	10 µM [falling, partial curve]
CCCCn1c(O)c(C(CC)=Nc2ccc(OCC)cc2)c(=O)[nH]c1=O	35.5 µM [rising, single point]	–
CCCCC(=O)N/N=C/c1c(O)n(CC)c(=S)n(CC)c1=O	31.6 µM [rising, single point]	31.6 µM [rising, single point]
COc1cccc(C2(C#N)CCN(C)CC2)c1	–	0.1 µM [rising, full curve, poor fit]
Cc1cccc(-n2c(O)c(/C=C/C=Nc3ccccc3)c(=O)[nH]c2=O)c1	10 µM [falling, partial curve]	10 µM [falling, partial curve, poor fit]
C/C=C/C(=O)OCC(=O)Nc1ccc(OC)c(Cl)c1	0.0158 µM [rising, full curve, poor fit]	–
C=CC[n+]1c(-c2ccc(C)cc2)csc1Nc1c(C)n(C)n(-c2ccccc2)c1=O	20 µM [rising, single point]	–
CC/C(=C(\c1ccc(O)cc1)c1ccc(OCCN(C)C)cc1)c1ccccc1	31.6 µM [falling, partial curve, poor fit]	17.8 µM [falling, partial curve, poor fit]

Filtered by structure, those above containing a carbonyl joined to an NH by a bond outside any ring
Structure (SMILES)	AC50 [1]	AC50 [2]
CC1CCC2(CC1)NC(=O)N(NC(=O)CCl)C2=O (configuration not stated)	35.5 µM [rising, partial curve]	–
NC(=O)c1ccc(OCC(O)CN2CC=C(c3ccc(F)cc3)CC2)cc1 (configuration not stated)	–	0.00501 µM [falling, full curve, poor fit]
CCCCCn1c(=O)c(C(=O)Nc2cnccn2)c(O)c2ccccc21	5.62 µM [rising, single point]	–
CCc1ccc(-n2nc(C)c3c(C(=O)NCCc4ccc(OC)c(OC)c4)cc(C)nc32)cc1	0.398 µM [falling, partial curve, poor fit]	12.6 µM [falling, partial curve, poor fit]
COc1ccc(CNC(=O)/C=C/c2ccc3[nH]cc(CCN(C)C)c3c2)cc1	6.31 µM [rising, single point]	–
Cc1ccc(Cl)cc1Nc1nn2c(=O)c3ccc(C(=O)NCc4cccs4)cc3nc2s1	7.08 µM [falling, partial curve]	10 µM [falling, partial curve]
CCCCC(=O)N/N=C/c1c(O)n(CC)c(=S)n(CC)c1=O	31.6 µM [rising, single point]	31.6 µM [rising, single point]
C/C=C/C(=O)OCC(=O)Nc1ccc(OC)c(Cl)c1	0.0158 µM [rising, full curve, poor fit]	–

Record cards, as listed above. Order of values: AC50 [1]	AC50 [2]
C[n+]1c2cc(N)ccc2cc2ccc(N)cc21 is listed as 17.8 µM [falling, partial curve]	3.98 µM [rising, partial curve]
NC(=O)c1ccc(OCC(O)CN2CC=C(c3ccc(F)cc3)CC2)cc1 (configuration not stated) is listed as –	0.00501 µM [falling, full curve, poor fit]

(continued)

Structure (SMILES)	AC50 [1]	AC50 [2]
CC(=O)NC(Cc1ccc(N(CCCl)CCCl)cc1)C(=O)O (configuration not stated)	17.8 µM [rising, single point]	–
Cc1ccccc1C(=O)Nc1ccc(C(=O)OCc2cc(=O)n3nc(C4CC4)sc3n2)cc1	–	2.82 µM [falling, full curve]
COc1ccn(C)c(=O)c1C#N	1.78 µM [falling, partial curve, poor fit]	0.316 µM [falling, partial curve]
CCOC(=O)C1CCN(/C=C2/C(=O)NC(=S)N(c3cccc(OC)c3)C2=O)CC1	–	39.8 µM [rising, partial curve, poor fit]
COc1ccc(-n2c(/C=C\c3ccccc3F)nc3ccccc3c2=O)c(OC)c1	17.8 µM [rising, partial curve, poor fit]	–
Cc1cccc(-n2c(O)c(C=Nc3ccccc3N)c(=O)[nH]c2=O)c1	14.1 µM [rising, partial curve]	–
CCOc1ccccc1-n1c(O)c(C=NCc2ccc3c(c2)OCO3)c(=O)[nH]c1=O	0.00562 µM [falling, full curve, poor fit]	–
CCOC(=O)c1c(-n2c(C)cc(C=C3C(=O)NC(=S)NC3=O)c2C)sc2c1CCCC2	–	20 µM [falling, single point]
COc1cc(C2c3cc4c(cc3C(OC(C)=O)[C@H]3COC(=O)C23)OCO4)cc(OC)c1OC (some centres not stated)	891 nM [falling, full curve] and 56.2 nM [falling, full curve]	794 nM [falling, full curve] and 112 nM [falling, full curve]
O=Cc1cn(CCCOc2ccccc2)c2ccccc12	35.5 µM [rising, single point]	12.6 µM [rising, partial curve, poor fit]
O=c1c(/C=N/N2CCOCC2)c(O)n(-c2ccccc2)c(=S)n1-c1ccccc1	0.00316 µM [rising, full curve, poor fit]	–
CO[C@H]1CC=C2CCN3CCC4=C(CC(=O)OC4)[C@]23C1	–	0.0251 µM [rising, full curve, poor fit]
c1ccc2sc(NC3=NCCN3)nc2c1	35.5 µM [rising, single point]	–
NS(=O)(=O)c1ccc(N=Cc2c(O)n(C3CCCCC3)c(=O)n(C3CCCCC3)c2=O)cc1	35.5 µM [falling, partial curve]	22.4 µM [falling, partial curve]
CCN1C(=O)/C(=C/c2ccc(N(CC)CC)cc2OC)C(=O)NC1=S	17.8 µM [rising, partial curve]	–
C[C@]12CCC(=O)C=C1CC[C@@H]1[C@@H]2C(=O)C[C@]2(C)C(=O)CC[C@@H]12	–	12.6 µM [falling, partial curve, poor fit]
COc1cc(C=C(C#N)C#N)cc(O)c1O	–	35.5 µM [falling, single point]
Cc1ccc(C)c(NS(=O)(=O)c2ccc(OCC(=O)NCc3cccnc3)cc2)c1	7.08 µM [rising, full curve, poor fit]	–
CN(C)C(=O)C(CCN1CCC(O)(c2ccc(Cl)cc2)CC1)(c1ccccc1)c1ccccc1	11.2 µM [falling, partial curve] and 17.8 µM [rising, partial curve] and 3.55 µM [rising, full curve, poor fit]	–
CC(C)[C@@]1(NC(=O)[C@@H]2C[C@@H]3c4cccc5[nH]cc(c45)C[C@H]3N(C)C2)O[C@@]2(O)C3CCCN3C(=O)[C@H](Cc3ccccc3)N2C1=O (some centres not stated)	6.31 µM [falling, full curve, poor fit]	6.31 µM [falling, full curve, poor fit]
C/C=C1/CC(C)C(C)(O)C(=O)OCC2CCN3CCC(OC1=O)C23 (configuration not stated)	–	0.141 µM [rising, full curve, poor fit]
COP(=O)(OC)c1nc(-c2cccc3ccccc23)oc1NCCc1ccccc1	11.2 µM [rising, single point]	–
CCOC(=O)C1(CCCc2ccccc2)CCN(C2CCCC2)CC1	11.2 µM [rising, partial curve]	–
CCOC(=O)c1nsnc1NCCCl	0.0631 µM [rising, full curve, poor fit]	–
Cc1ccccc1N1C(=O)NC(=O)/C(=C\c2cnn(-c3ccccc3)c2)C1=O	17.8 µM [rising, single point]	–
C[C@@H]1O[C@H](O[C@@H]2C=C3CC[C@H]4[C@@H](CC[C@]5(C)[C@@H](c6ccc(=O)oc6)CC[C@]45O)[C@@]3(C)CC2)[C@@H](O)[C@H](O)[C@@H]1O	0.0355 µM [falling, full curve]	0.0631 µM [falling, full curve]
